In patent US20260008852A1:
Residue numbers refer to the chain shown, from its start. These are yes or no findings as the source states them, for the method shown. Some binding calls cover weakened binding; strength is not graded here.

By UniProt entry, the sequences of proteins in these tests, tags left out. Residues count along the entry.
UniProt Q5ZPR3, residues 29-534: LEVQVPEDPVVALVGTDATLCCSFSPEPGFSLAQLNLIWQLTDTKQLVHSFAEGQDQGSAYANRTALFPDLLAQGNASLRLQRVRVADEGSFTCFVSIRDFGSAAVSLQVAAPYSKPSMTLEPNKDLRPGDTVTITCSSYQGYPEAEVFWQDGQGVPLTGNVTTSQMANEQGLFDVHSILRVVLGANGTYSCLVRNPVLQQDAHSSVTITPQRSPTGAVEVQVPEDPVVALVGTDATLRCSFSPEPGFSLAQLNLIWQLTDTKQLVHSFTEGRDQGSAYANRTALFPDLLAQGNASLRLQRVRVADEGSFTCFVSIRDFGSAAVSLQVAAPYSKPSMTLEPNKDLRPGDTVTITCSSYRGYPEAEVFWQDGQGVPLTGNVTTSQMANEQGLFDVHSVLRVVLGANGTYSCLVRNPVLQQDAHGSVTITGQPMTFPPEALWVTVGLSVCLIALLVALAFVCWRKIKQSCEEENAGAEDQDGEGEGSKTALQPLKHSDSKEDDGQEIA
UniProt Q8VE98, residues 29-244: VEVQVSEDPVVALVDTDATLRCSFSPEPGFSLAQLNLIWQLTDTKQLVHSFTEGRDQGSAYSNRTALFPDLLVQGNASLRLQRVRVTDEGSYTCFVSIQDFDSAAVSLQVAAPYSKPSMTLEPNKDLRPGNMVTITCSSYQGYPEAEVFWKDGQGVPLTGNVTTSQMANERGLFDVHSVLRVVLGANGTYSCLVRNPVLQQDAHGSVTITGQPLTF

B1: 40579p1.C2 (scFv, V domains shown)
VH: EVQLLESGGDLVQPGGSLRLSCAASGFNFSSYWMSWVRQAPGKGLEWVSGISISYGGNAYYADSVKGRFTVSRDNSKNTLYLQMNSLRAEDTAVYYCGRDRSPYQYRSMDVWGQGTTVTVSS
VL: EIVLTQSPATLSVSPGERATFSCRASQTIGNKLAWYQQKPGQAPRLLIFSASTRATDIPDRFSGSGSGTDFTLTISSLQSEDFAVYYCQQYNNWPPLTFGGGTKVEIK
B2: 40511p1.1.G1 (scFv, V domains shown)
VH: DVQLVESGGGVVRPGESLRLSCAASGFTFSSYAESWVRQAPGEGLEWVSIISGSGGNTFYADSVKGRFTISRDNSKNTLYLQMNSLRAEDTAVYYCARFAYGFFDYWGLGTLVTVSS
VL: EIVLTQSPGTLSVSPGEGATLSCRASQTVGSKLAWYQQKPGQPPSLLIYDASTRATGIPDRFSGSGSGTDFTLTISSLQSEDFAVYYCQQYRNWPPLTFGGGTKVEIK
B3: 40511p1.1.D6 (scFv, V domains shown)
VH: DVQLVESGGGVVRPGESLTLSCAASGFTINSYAVSWVRQAPGEGLEWVSGISGSGVRYYADSVKGRFTISRDNSNNTLYLQMNSLRAEDTAVYYCARSNKVTWNNFFDYWGLGTLVTVSS
VL: EVVLTQSPGTLTLSPGERATLSCRASRSILTSLAWYQQKPGQAPRLLIYNTVTRATGIPARFSGSGSGTEFTLTINSLQSEDFAVYYCQQYYDWPPLTFGGGTKVEIK
B4: 40511p1.1.G3 (scFv, V domains shown)
VH: B3 VH with N73D
VL: B3 VL
B5: 40511p1.1.D8 (scFv, V domains shown)
VH: DVQLVESGGGVVRPGESLRLSCAASGFTFSSYAMSWVRQAPGEGLEWVSSISGSGGSTLYADSVKGRFTISRDSSNNSLYLQMNSLRAEDTAVYYCAKARNNFFDYWGLGTLVTVSS
VL: EIVLTQSPGTLTLSPGERATLSCRASRSILTSLAWYQQRPGQAPRLLIYGANSRATGIPDRFSGSGSGTEFTLTISSLQSEDFAVYYCQQYYDWLTITFGGGTKVEIK
B6: 40511p1.2.B5 (scFv, V domains shown)
VH: B5 VH
VL: B5 VL with A43T
B7: 40511p1.1.A1 (scFv, V domains shown)
VH: DVQLVESGGGVVRPGESLRLSCAASGFTFSNYAMNWVRQAPGEGLEWVSRINYKGYNITYYADSVKGRFTISRDNSKNTLYLQMNSLRAEDTAVYYCAKSGSNSNNFFDYWGLGTLVTVSS
VL: EIVLTQSPGTLSVSPGERATLSCRASQSVNSKLAWYQQRPGQAPRLLIYDASSRATGIPDRFSGSGSGTDFTLTISRLEPEDFAVYYCQQYKNWPPLTFGGGTKVEIK
B8: 40511p1.1.H5 (scFv, V domains shown)
VH: B7 VH
VL: EIVLTQSPGTLSLSPGERATLSCRASQSIRSDLAWYQQKPGQAPRLLIYGAASRATGIPARFSGSGSGTEFTLTISSLQSGDFAVYYCQQYNSWPPLTFGGGTKVEIK
B9: 40511p1.1.H10 (scFv, V domains shown)
VH: B7 VH
VL: EIVLTQSPGNLSLSPGERATLSCRASQSVGSQLGWYQQKPGQAPRLLIYGASTRATGIPDRFSGSGSGTEFALTISSLQSEDFAVYYCQQYYDWPPLTFGGGTKVEIK
B10: 40511p1.2.A4 (scFv, V domains shown)
VH: B2 VH
VL: B2 VL with G18R, P43A, S45R, G57D
B11: 40511p1.2.A12 (scFv, V domains shown)
VH: B2 VH
VL: B2 VL with G18R
B12: 40579p1.H11 (scFv, V domains shown)
VH: EVQLLESGGGLVQPGGSLRLSCAASGFTFDDYGMSWVRQAPGKGLEWVSAIRSKASSYATYYADSVKGRFTVSRDNSENTLYLQMNSLRAEDTAVYYCAKHRSNYYFMDVWGQGTTVTVSS
VL: B9 VL with N10T, Q32D, G34A, K39R, G50A, T53S, G57D, E70D, A72T, D93S
B13: 40511p1.2.G10 (scFv, V domains shown)
VH: B7 VH
VL: B9 VL with N10T, S28T, Q32K, G34A, G57D, A72T, Y92I, D93N, T98S
B14: 40579p1.B8 (scFv, V domains shown)
VH: EVQLLESGGGLVQPGGSLRLSCAASGFTFSDYYMSWVRQAPGKGLEWVSGISMSSTIYYADSVKGRFTISRDNSKNTLYLQMNSLRAEDTAVYYCARHRSPYQYRSMDVWGQGTTVTVSS
VL: B2 VL with V13L, G18R, T28S, G30N, T53R, D70E, R92N
B15: 40633p1.2.C11 (scFv, V domains shown)
VH: EVQLLESGGGLVQPGGSLRLSCAASGFTFSSYWMSWVRQAPGKGLEWVAGINRNGGSTYYADSVKGRFTISRDNSENTLYLQVNSLRAEDTAVYYCARWNDYDIMDVWGQGTTVTVSS
VL: QSVLTQPSSASGTPGQRVTISCSGSSSNVGRRAVNWYQQLPGTAPKLLISNSQRPSGVPDRFSGSKSGTSASLAISGLQSEDEADYYCATWDASLNSWVFGGGTKLTVL

Target: B7-H3 on B7-H3-expressing CHO cells (Genescript) (UniProt Q5ZPR3)
Assay: flow cytometry, B7-H3-expressing CHO cells, 10 ug/ml

binding, binds:
B1
B2
B3
B4
B5
B6
B7
B8
B9
B10
B11
B12
B13
B14
B15

Target: His-tagged mouse B7-H3 (mouse) (UniProt Q8VE98)
Assay: ELISA, coated His-tagged antigen

binding, binds:
B1
B2
B3
B4
B5
B6
B7
B8
B10
B11
B13
B14
